Measured data: PubChem BioAssay AID1259308 (NCATS, 2017)
Test: 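Genes whose loss raises luciferase production in HEK293 cells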 (primary screen). System: human HEK293 embryonic kidney cells stably expressing firefly luciferase (HEK-CMV-Luc2-Hygro). Knock-down reagent: single siRNA against human genes, 0.8 pmol siRNA per well. Time to read-out: 72 h. Read-out: 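Luciferase light (ONE-Glo) measured on one replicate plate set and viability (CellTiter-Glo) on the other, scaled to a negative control siRNA, with robust z-scores and luciferase per cell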. Reading the numbers: total luciferase, z-score: higher = more reporter protein produced. Call rule: 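An siRNA counts as active if its total luciferase robust z-score exceeds 3; genes with two or more such siRNAs out of three were retested with fresh siRNAs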. Meaning of the calls: active = raised luciferase; inactive = no rise.
In all, the deposit lists about 59,000 reagents; below is a part drawn at random. About 1,510 of them (2.6%) were called active. 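Calls use total luciferase alone and ignore viability, so some active siRNAs may act by altering cell number.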 A number with no mark means an inactive call. Reagents against one gene are numbered here. Not all columns of the deposit are shown. No sequences are given here.

total luciferase, z-score, by gene and reagent
LINC00977: #1 0.827; #2 -0.943; #3 -1.96
MYEF2: #1 -1.98; #2 -0.043; #3 -0.23
DAAM1: #1 0.0983; #2 -0.963; #3 -1.44
PALM3: #1 -1.98; #2 0.558; #3 -0.466
LHX8: #1 -0.362; #2 -0.848; #3 0.273
SOAT2: #1 0.812; #2 -1.03; #3 0.0836
ZNF107: #1 0.359; #2 -1.26; #3 0.695
NDUFAF4: #1 -0.691; #2 -0.47; #3 -0.169
PCDH11X: #1 3.35 (active); #2 -0.443; #3 0.0312
RINT1: #1 -1.02; #2 1.18; #3 -0.0936
TNFRSF9: #1 -0.688; #2 -1.39; #3 1.05
TVP23A: #1 -0.849; #2 0.744; #3 0.0852
SNED1: #1 0.116; #2 -0.331; #3 0.193
PPP2R1A: #1 3.63 (active); #2 4.34 (active); #3 3.5 (active)
ZNF550: #1 0.794; #2 1.45; #3 1.41
SNRPE: #1 1.25; #2 3.22 (active); #3 4.49 (active)
CCDC185: #1 -0.934; #2 -1.23; #3 -0.787
RERE: #1 -1.45; #2 0.541; #3 -0.411
DBI: #1 0.212; #2 -3.32; #3 -0.213
SGPL1: #1 0.948; #2 -1.27; #3 0.962
CHIT1: #1 -1.06; #2 -1.95; #3 1.33
DSCR10: #1 -0.55; #2 0.117; #3 -0.699
DGAT2L6: #1 1.08; #2 0.439; #3 -0.19
CCR1: #1 0.0388; #2 -0.00406; #3 0.345
MSRB1: #1 1.22; #2 0.796; #3 -0.495

Active calls (from the list above):
total luciferase, z-score, by gene and reagent
PCDH11X: #1 3.35 (active)
PPP2R1A: #1 3.63 (active); #2 4.34 (active); #3 3.5 (active)
SNRPE: #2 3.22 (active); #3 4.49 (active)
